Measured values from patent US20170121405A1.
Results are given in words; binding and its absence hold for the method and conditions named. Some entries that bind do so weakly or less than the wild type.

Sequences of proteins named here, by UniProt entry; tags and fusion partners are left off. Residues count along the entry.
UniProt P15328, residues 25-234: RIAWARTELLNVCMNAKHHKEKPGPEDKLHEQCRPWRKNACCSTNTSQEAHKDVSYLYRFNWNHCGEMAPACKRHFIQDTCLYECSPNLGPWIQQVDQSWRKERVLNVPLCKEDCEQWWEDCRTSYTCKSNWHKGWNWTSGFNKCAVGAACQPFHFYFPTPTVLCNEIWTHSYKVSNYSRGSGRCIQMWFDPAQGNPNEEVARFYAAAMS

Molecular target: Folate receptor alpha (UniProt P15328)
Assay: indirect IHC on FFPE tissue sections, 2.5 µg/ml 26B3, HRP-polymer detection

binding: binds
B1: Monoclonal antibody 26B3 (antibody, V domains shown)
VH: GPELVKPGASVKISCKASDYSFTGYFMNWVMQSHGKSLEWIGRIFPYNGDTFYNQKFKGRATLTVDKSSSTAHMELRSLASEDSAVYFCARGTHYFDYWGQGTTLTVSS
VL: PASLSASVGETVTITCRTSENIFSYLAWYQQKQGISPQLLVYNAKTLAEGVPSRFSGSGSGTQFSLKINSLQPEDFGSYYCQHHYAFPWTFGGGSKLEIKR
